The other results are listed elsewhere or left out.
Key:
Test in all cases: log2 fold change, soluble protein after heating vs DMSO (PISA); higher = thermal stabilisation; K562 cells, 10 uM, 30 min; active = over 0.2 and 3.5 SD of the protein, either way, in both replicates (recomputed)
[1] = compound: CS(=O)(=O)c1ccc(-c2cnc(N)c(C(=O)Nc3ccccc3)n2)cc1
In short: (§1)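 Values are thermal stability changes relative to control samples and are taken from duplicates. They are stated as log2 fold changes. Before quantification by TMTpro 16plex LC-MS/MS with equalised channel sums, K562 cells at 2×10^6 cells/mL were treated with 10 μM compound for 30 min, heated in aliquots for 3 min across 48°C-58°C, pooled, extracted in PBS with 0.5% NP-40 at 4°C, and centrifuged at 21,000xg for 90 min to give the soluble supernatant.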

Amino acid sequences for entries named in this document (tags omitted). A change or cut given only in a name is not applied to a line headed by its entry.
UniProt Q16576, whole entry, looked up: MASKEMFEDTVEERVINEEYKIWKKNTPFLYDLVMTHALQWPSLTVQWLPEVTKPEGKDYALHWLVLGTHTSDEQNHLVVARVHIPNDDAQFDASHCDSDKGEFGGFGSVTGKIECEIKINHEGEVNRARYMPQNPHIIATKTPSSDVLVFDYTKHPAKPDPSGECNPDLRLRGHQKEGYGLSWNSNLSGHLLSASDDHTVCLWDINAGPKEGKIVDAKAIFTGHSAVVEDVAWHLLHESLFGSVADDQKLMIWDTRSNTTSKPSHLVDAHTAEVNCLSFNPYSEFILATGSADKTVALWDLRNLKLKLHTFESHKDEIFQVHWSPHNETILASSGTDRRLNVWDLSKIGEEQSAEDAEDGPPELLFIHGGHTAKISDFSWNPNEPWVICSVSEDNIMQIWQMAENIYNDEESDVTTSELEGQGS
UniProt Q06609, whole entry, looked up: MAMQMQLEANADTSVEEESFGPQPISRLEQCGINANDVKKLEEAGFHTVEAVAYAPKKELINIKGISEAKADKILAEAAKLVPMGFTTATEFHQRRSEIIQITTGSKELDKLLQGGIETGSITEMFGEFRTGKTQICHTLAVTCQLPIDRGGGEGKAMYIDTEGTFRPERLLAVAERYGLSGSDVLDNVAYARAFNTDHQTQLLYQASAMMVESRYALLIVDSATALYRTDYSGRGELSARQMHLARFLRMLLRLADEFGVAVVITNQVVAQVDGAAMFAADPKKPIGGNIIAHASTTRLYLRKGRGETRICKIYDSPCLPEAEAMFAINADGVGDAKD
UniProt Q9H5N1: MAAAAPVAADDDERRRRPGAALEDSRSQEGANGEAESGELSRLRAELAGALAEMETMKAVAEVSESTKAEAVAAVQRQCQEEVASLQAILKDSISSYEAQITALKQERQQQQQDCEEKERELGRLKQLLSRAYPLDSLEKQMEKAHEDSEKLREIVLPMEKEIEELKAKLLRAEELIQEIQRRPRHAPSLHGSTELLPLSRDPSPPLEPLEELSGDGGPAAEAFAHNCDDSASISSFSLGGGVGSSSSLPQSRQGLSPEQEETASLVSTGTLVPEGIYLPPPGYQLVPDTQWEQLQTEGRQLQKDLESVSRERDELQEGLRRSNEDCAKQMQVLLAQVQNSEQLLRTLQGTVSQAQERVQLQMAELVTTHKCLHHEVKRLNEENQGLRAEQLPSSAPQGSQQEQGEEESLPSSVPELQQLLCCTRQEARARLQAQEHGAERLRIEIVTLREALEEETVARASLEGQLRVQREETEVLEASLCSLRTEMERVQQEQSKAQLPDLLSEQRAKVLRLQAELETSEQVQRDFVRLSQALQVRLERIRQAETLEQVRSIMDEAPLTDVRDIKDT
UniProt O15315: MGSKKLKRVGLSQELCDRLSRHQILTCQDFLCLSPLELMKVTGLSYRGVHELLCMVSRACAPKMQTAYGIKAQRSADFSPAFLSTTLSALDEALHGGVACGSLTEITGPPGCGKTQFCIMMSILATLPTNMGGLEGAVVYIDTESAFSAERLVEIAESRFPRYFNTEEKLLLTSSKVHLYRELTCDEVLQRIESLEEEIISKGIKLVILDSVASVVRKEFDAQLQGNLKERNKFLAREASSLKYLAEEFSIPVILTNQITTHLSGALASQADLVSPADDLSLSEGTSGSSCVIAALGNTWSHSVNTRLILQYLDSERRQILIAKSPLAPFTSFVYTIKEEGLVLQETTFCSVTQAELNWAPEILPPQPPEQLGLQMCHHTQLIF
UniProt O75884: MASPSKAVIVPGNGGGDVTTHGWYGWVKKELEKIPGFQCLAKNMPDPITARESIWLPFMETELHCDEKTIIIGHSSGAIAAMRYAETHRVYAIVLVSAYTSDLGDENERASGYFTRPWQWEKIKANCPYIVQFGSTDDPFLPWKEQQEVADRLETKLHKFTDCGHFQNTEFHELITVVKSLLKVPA
UniProt Q9P0K7: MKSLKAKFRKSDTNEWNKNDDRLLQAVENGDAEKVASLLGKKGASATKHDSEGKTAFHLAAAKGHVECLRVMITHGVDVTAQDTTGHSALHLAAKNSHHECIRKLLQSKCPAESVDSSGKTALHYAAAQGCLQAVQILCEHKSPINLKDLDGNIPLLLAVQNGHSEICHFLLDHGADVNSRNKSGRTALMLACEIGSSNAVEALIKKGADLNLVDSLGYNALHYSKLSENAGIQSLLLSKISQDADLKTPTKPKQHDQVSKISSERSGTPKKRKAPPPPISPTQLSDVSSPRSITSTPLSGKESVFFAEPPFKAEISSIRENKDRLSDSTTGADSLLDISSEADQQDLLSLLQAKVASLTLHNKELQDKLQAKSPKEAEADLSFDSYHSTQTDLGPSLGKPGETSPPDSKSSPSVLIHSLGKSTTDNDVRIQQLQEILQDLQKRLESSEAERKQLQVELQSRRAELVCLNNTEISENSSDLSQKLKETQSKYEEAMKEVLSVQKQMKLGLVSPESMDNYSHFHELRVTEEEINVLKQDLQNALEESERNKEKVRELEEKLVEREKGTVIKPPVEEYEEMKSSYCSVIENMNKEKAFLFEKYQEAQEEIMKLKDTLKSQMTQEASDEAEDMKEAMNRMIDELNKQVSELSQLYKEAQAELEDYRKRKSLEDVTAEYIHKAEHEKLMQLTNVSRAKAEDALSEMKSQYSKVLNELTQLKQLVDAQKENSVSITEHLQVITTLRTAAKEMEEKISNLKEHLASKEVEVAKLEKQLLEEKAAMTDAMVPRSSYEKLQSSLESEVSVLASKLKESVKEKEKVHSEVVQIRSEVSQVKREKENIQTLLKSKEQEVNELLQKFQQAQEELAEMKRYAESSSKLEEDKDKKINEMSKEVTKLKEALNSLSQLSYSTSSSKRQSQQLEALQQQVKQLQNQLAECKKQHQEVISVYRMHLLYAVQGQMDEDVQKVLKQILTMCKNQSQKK
UniProt Q14644: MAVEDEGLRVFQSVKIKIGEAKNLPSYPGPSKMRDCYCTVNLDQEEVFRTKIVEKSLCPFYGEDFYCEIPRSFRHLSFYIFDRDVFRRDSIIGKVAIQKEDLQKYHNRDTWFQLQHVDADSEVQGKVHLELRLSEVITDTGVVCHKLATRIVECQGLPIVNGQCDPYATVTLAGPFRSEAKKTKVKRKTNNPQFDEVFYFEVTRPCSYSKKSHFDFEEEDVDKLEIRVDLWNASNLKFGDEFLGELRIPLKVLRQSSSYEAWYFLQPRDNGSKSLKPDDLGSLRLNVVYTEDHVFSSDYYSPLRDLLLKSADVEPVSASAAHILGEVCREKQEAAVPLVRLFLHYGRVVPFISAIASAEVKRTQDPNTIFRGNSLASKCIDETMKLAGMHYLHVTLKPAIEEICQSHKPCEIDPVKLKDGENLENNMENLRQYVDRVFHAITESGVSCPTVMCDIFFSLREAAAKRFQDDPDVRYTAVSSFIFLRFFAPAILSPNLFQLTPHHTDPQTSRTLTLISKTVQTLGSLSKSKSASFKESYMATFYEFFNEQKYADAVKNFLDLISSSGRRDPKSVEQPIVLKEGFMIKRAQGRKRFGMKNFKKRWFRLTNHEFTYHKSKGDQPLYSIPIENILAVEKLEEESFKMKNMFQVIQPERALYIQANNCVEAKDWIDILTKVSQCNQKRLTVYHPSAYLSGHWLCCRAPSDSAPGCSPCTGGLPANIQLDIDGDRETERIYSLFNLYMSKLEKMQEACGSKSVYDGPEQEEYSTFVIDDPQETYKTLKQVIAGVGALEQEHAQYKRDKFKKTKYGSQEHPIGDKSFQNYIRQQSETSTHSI
UniProt Q9BXF6: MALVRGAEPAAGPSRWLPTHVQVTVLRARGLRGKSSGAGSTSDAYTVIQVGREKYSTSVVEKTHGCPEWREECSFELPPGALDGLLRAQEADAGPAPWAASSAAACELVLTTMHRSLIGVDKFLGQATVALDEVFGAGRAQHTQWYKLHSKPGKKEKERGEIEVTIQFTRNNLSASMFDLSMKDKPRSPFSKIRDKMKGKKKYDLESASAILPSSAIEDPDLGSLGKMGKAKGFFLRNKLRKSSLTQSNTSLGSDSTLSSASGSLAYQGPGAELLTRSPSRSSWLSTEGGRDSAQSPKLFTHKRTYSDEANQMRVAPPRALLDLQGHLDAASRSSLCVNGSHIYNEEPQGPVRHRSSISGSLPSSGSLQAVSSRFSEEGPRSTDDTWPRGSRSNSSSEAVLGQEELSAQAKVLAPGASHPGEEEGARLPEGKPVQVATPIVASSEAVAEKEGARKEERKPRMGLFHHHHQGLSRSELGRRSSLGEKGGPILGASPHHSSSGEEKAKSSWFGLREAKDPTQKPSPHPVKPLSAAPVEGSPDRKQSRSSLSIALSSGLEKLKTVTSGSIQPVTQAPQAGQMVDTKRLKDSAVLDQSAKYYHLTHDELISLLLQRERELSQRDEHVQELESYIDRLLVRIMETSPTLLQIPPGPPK
UniProt Q96PK6: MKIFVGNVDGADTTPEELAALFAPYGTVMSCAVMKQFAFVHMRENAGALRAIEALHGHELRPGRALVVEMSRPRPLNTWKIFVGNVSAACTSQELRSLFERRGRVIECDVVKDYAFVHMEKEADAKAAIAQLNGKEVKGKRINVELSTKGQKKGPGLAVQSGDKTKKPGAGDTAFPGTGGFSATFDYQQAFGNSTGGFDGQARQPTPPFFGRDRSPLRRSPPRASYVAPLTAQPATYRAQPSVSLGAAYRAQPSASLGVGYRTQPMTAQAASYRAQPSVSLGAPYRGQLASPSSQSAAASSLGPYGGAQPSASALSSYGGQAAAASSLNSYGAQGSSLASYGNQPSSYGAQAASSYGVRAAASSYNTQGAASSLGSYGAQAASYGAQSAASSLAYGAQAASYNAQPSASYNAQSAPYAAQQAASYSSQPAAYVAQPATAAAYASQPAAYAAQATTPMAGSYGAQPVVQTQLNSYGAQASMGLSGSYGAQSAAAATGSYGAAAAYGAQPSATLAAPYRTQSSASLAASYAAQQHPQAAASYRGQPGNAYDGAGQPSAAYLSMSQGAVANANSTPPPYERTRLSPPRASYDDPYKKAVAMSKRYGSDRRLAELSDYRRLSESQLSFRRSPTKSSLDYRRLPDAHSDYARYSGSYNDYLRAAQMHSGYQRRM
UniProt Q9H6Z4: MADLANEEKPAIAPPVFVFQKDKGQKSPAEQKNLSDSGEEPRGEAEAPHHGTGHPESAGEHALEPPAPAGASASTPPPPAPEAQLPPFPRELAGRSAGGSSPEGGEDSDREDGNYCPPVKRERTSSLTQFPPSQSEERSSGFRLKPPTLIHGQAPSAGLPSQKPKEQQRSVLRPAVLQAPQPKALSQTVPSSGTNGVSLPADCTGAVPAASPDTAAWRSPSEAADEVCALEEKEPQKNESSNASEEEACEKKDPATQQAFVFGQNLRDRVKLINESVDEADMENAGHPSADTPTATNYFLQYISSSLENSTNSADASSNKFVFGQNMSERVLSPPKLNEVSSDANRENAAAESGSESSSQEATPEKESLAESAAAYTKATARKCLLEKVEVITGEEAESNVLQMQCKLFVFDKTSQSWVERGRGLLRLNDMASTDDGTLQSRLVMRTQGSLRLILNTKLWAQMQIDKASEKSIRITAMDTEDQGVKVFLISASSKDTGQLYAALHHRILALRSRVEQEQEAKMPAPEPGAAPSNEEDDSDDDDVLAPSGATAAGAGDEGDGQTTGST

crizotinib = compound: C[C@@H](Oc1cc(-c2cnn(C3CCNCC3)c2)cnc1N)c1c(Cl)ccc(F)c1Cl [crizotinib]
In short: as §1

[2] = compound: C[C@H](C1=CC=C(C=C1)C(=O)NC2=C3C=CNC3=NC=C2)N
In short: as §1

gandotinib = compound: Cc1cc(Nc2cc(CN3CCOCC3)c3nc(C)c(Cc4ccc(Cl)cc4F)n3n2)n[nH]1 [gandotinib]
In short: as §1

[3] = compound: Cc1cc(SCc2sc(-c3ccc(C(F)(F)F)cc3)nc2C)ccc1OCC(=O)O
In short: as §1

doramapimod = compound: Cc1ccc(-n2nc(C(C)(C)C)cc2NC(=O)Nc2ccc(OCCN3CCOCC3)c3ccccc23)cc1 [doramapimod]
In short: as §1

ispinesib = compound: Cc1ccc(C(=O)N(CCCN)[C@@H](c2nc3cc(Cl)ccc3c(=O)n2Cc2ccccc2)C(C)C)cc1 [ispinesib]
In short: as §1

[4] = compound: C[C@@H]1COCCN1C2=NC(=NC(=C2)C3(CC3)S(=O)(=O)C)C4=C5C=CNC5=CC=C4
In short: as §1

duvelisib = compound: C[C@H](Nc1ncnc2nc[nH]c12)c1cc2cccc(Cl)c2c(=O)n1-c1ccccc1 [duvelisib]
In short: as §1

tozasertib = compound: Cc1cc(Nc2cc(N3CCN(C)CC3)nc(Sc3ccc(NC(=O)C4CC4)cc3)n2)n[nH]1 [tozasertib]
In short: as §1

Measured: log2 fold change

RAD50, A0A494C0Y7
inactive: [1] 0.029 | crizotinib -0.024 | [2] 0.204 | gandotinib 0.021 | [3] 0.054 | doramapimod 0.034 | ispinesib -0.054

RBBP7 (UniProt Q16576)
inactive: [1] 0 | crizotinib 0.039 | [4] -0.016 | duvelisib 0.06 | [3] -0.121 | doramapimod 0.093 | ispinesib 0.04

RABGAP1L isoform 5 (UniProt Q5R372)
inactive: [1] 0.071 | crizotinib 0.003 | [4] 0.022 | [2] 0.046 | [3] -0.015 | doramapimod -0.073

RARS (UniProt P54136)
inactive: [1] -0.001 | crizotinib -0.266 | [4] -0.099 | [2] 0.373 | gandotinib 0.018 | [3] 0.132 | doramapimod 0.184
active: ispinesib -0.398

RB1CC1 (UniProt Q8TDY2)
inactive: [1] 0.062 | crizotinib 0.041 | [4] -0.006 | [2] 0.033 | gandotinib 0.132 | [3] 0.011 | doramapimod 0.037 | ispinesib -0.02

RAB40C (UniProt Q96S21)
inactive: [1] 0.018 | crizotinib 0.001 | [4] 0.063 | duvelisib -0.213 | gandotinib -0.236 | tozasertib 0.051 | [3] -0.215 | doramapimod 0.022 | ispinesib -0.055

RAB3GAP2 (UniProt Q9H2M9)
inactive: [1] 0.019 | crizotinib -0.064 | [4] -0.024 | [2] 0.213 | gandotinib 0.003 | [3] 0.119 | doramapimod 0.046 | ispinesib -0.097

RAPGEF4 (UniProt Q8WZA2)
inactive: [1] 0.115 | crizotinib 0.051 | [4] 0.04 | [2] -0.061 | [3] -0.139 | doramapimod 0.097

RAB33B (UniProt Q9H082)
inactive: [1] 0.007 | crizotinib 0.106 | [4] 0.064 | [2] -0.037 | gandotinib -0.095 | [3] -0.038 | doramapimod -0.021 | ispinesib -0.065

RAC3 (UniProt P60763)
inactive: [1] 0.074 | crizotinib 0.097 | [4] 0.073 | [2] -0.027 | gandotinib 0 | [3] 0.005 | ispinesib -0.013
active: doramapimod 0.262

RAD51 (UniProt Q06609)
inactive: [1] 0.005 | crizotinib -0.061 | [4] -0.079 | [2] -0.019 | gandotinib 0.01 | [3] -0.005 | doramapimod -0.025 | ispinesib -0.009

RBM26 isoform 2 (UniProt Q5T8P6)
inactive: [1] -0.012 | crizotinib 0.03 | [4] 0.374 | [2] -0.154 | gandotinib -0.056 | [3] 0.136 | doramapimod -0.036 | ispinesib -0.089

RASSF3 (UniProt Q86WH2)
inactive: [2] 0.075 | gandotinib -0.037 | ispinesib -0.066

RABEP2 (UniProt Q9H5N1)
inactive: [2] 0.015 | ispinesib -0.008

RAB3D (UniProt O95716)
inactive: [2] -0.031 | gandotinib 0.083 | [3] -0.115 | ispinesib 0.2

RAD51B (UniProt O15315)
inactive: [1] 0.005 | [4] 0.118 | [2] 0.003 | duvelisib 0.219 | gandotinib 0.117 | tozasertib -0.079 | [3] 0.123

RBCK1 (UniProt Q9BYM8)
inactive: [4] -0.028 | [2] 0.143 | duvelisib -0.164 | tozasertib 0.062 | [3] 0.17

RBBP5 isoform 2 (UniProt Q15291)
inactive: [1] 0.055 | [4] 0.069 | gandotinib -0.003 | tozasertib 0.058 | ispinesib -0.074

RBBP8 isoform 2 (UniProt Q99708)
inactive: crizotinib 0.212 | tozasertib -0.087 | doramapimod -0.067

RBM28 (UniProt Q9NW13)
inactive: [1] -0.067 | [4] -0.192 | [2] 0.077 | ispinesib -0.117

RBBP4 isoform 2 (UniProt Q09028)
inactive: [2] 0.254 | duvelisib 0.101 | gandotinib 0.047 | [3] -0.035

RANBP6 (UniProt O60518)
inactive: [1] -0.02 | crizotinib 0.031 | duvelisib 0.259 | [3] 0.043 | doramapimod 0.05 | ispinesib -0.352

RAI1 (UniProt Q7Z5J4)
inactive: [1] 0.127 | [4] 0.206 | ispinesib -0.43

RACK1 (UniProt D6RHH4)
inactive: [1] 0.478 | [4] -0.177 | [2] 0.34 | duvelisib 0.014 | gandotinib 0.032 | tozasertib -0.256 | [3] -0.242

RASSF1 (UniProt Q9NS23)
inactive: [1] 0.043 | ispinesib -0.276

RALGPS2 (UniProt Q86X27)
inactive: crizotinib -0.237 | [4] -0.199 | [2] 0.222 | gandotinib 0.08 | [3] 0.106 | doramapimod 0.289

RBBP9 (UniProt O75884)
inactive: [1] 0.074 | [4] -0.098

RAB3B (UniProt P20337)
inactive: [1] 0.005 | gandotinib 0.195 | tozasertib 0.043 | ispinesib -0.296

RAB28 (UniProt P51157)
inactive: crizotinib -0.132 | [2] 0.216 | duvelisib 0.015 | gandotinib -0.004 | [3] 0.041 | doramapimod 0.028 | ispinesib -0.093

RAD23A isoform 3 (UniProt P54725)
inactive: gandotinib 0.272

RAI14 isoform 2 (UniProt Q9P0K7)
inactive: [1] -0.045 | [4] 0.044 | [2] -0.247 | duvelisib 0.119 | gandotinib -0.022 | tozasertib -0.026 | [3] -0.007 | ispinesib -0.139

RASA3 (UniProt Q14644)
inactive: [2] 0.172 | duvelisib 0.41 | gandotinib 0.222 | [3] 0.041

RAB30 (UniProt Q15771)
inactive: crizotinib 0.115 | [4] -0.028 | [2] -0.215 | duvelisib -0.117 | gandotinib -0.098 | [3] 0.009 | doramapimod -0.066 | ispinesib 0.05

RAB18 (UniProt H0Y6T8)
inactive: crizotinib -0.012 | [2] 0.327 | tozasertib -0.072 | doramapimod 0.089

RBM23 (UniProt Q86U06)
inactive: [1] 0.086 | [4] 0.15 | [2] -0.031 | duvelisib 0.043 | [3] 0.111 | ispinesib 0.217

RAD51D (UniProt O75771)
inactive: crizotinib -0.207 | [2] -0.052 | duvelisib 0.102 | gandotinib -0.383 | tozasertib -0.127 | [3] -0.077 | doramapimod 0.038 | ispinesib -0.396

RAP2C (UniProt Q9Y3L5)
active: gandotinib -0.742
inactive: [1] -0.046 | [4] 0.007 | [2] -0.144 | [3] -0.108 | ispinesib 0.009

Taken from the entries so far (9 entries):
RAB3B (UniProt P20337)
inactive: [1] 0.005 | gandotinib 0.195 | tozasertib 0.043 | ispinesib -0.296

RAB28 (UniProt P51157)
inactive: crizotinib -0.132 | [2] 0.216 | duvelisib 0.015 | gandotinib -0.004 | [3] 0.041 | doramapimod 0.028 | ispinesib -0.093

RAD23A isoform 3 (UniProt P54725)
inactive: gandotinib 0.272

RAI14 isoform 2 (UniProt Q9P0K7)
inactive: [1] -0.045 | [4] 0.044 | [2] -0.247 | duvelisib 0.119 | gandotinib -0.022 | tozasertib -0.026 | [3] -0.007 | ispinesib -0.139

RASA3 (UniProt Q14644)
inactive: [2] 0.172 | duvelisib 0.41 | gandotinib 0.222 | [3] 0.041

RAB30 (UniProt Q15771)
inactive: crizotinib 0.115 | [4] -0.028 | [2] -0.215 | duvelisib -0.117 | gandotinib -0.098 | [3] 0.009 | doramapimod -0.066 | ispinesib 0.05

RAB18 (UniProt H0Y6T8)
inactive: crizotinib -0.012 | [2] 0.327 | tozasertib -0.072 | doramapimod 0.089

RBM23 (UniProt Q86U06)
inactive: [1] 0.086 | [4] 0.15 | [2] -0.031 | duvelisib 0.043 | [3] 0.111 | ispinesib 0.217

RAD51D (UniProt O75771)
inactive: crizotinib -0.207 | [2] -0.052 | duvelisib 0.102 | gandotinib -0.383 | tozasertib -0.127 | [3] -0.077 | doramapimod 0.038 | ispinesib -0.396

(cont.)

RBKS (UniProt Q9H477)
inactive: ispinesib -0.145

RBL1 (UniProt P28749)
inactive: gandotinib -0.027

RAB11FIP5 (UniProt Q9BXF6)
inactive: ispinesib -0.052

R3HDM4 (UniProt Q96D70)
inactive: [1] 0.124 | [4] -0.023 | duvelisib 0.056 | tozasertib -0.092 | [3] 0.182

RBM14 (UniProt Q96PK6)
inactive: crizotinib -0.025 | [2] 0 | duvelisib 0.046 | gandotinib 0.028 | tozasertib -0.101 | [3] 0.08 | doramapimod 0.026 | ispinesib -0.057

RAP1B (UniProt F5GWU8)
inactive: crizotinib 0.085 | [2] 0.075 | duvelisib 0.015 | [3] -0.11 | doramapimod -0.088 | ispinesib 0.082

RAD17 (UniProt O75943)
inactive: crizotinib 0.13 | duvelisib 0.025 | tozasertib -0.023 | [3] 0.128 | doramapimod 0.085

RANBP3 isoform 2 (UniProt Q9H6Z4)
inactive: [1] -0.215 | gandotinib 0.041 | tozasertib -0.095

Reference: the supplement of paper PMC10849652
